Results as given in PubChem BioAssay AID2685 (National Center for Advancing Translational Sciences (NCATS), 2010).
This is one part of the list. Further columns of the screen follow, without active or inactive calls. Compounds called inactive in the main read-out are mostly missing here. The note in brackets gives the kind of curve behind each potency; many fits are weak.

Assay: qHTS Assay for Lipid Storage Modulators in Drosophila S3 Cells;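 on cell number change: cells counted by Cell Tracker Red CMTPX staining in the red channel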
Details: BODIPY lipid droplet fluorescence, 18-24 h; for cell number change: measured here: cell count max response, cells fed with added oleic acid
Procedure, shortened: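 Drosophila S3 cells got compounds at several concentrations plus oleic acid (400 uM solution). Laser-scanning cytometry with 488 nm excitation read lipid droplets at 500-530 nm and cells at 575-640 nm. Percent activity was relative to 20 uM Triacsin C.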

[1] = measured here: cell number channel AC50, cells fed with added oleic acid
[2] = measured here: lipid fluorescence (Fed channel) AC50, cells fed with added oleic acid

SMILES	cell number change	AC50 [1]	AC50 [2]
CCOc1ccc(S(=O)(=O)NCc2ccncc2)cc1	-34.4%	1.84 µM [falling, partial curve]	–
Cc1csc(NC(=O)C2C3C=CC(O3)C2C(=O)O)n1 (configuration not stated)	-17.9%	–	0.366 µM [falling, full curve, poor fit]
CC(=O)Nc1cccc(NC(=O)c2ccco2)c1	8.83%	–	–
O=C(NCc1ccccc1F)C1CCCN(c2cnccn2)C1 (configuration not stated)	12.5%	–	16.4 µM [rising, partial curve]
COc1cccc(NC(=O)CN(c2ccc([N+](=O)[O-])cc2)S(=O)(=O)c2ccccc2)c1	8.07%	–	18.4 µM [rising, single point]
CCOC(=O)c1c(C)[nH]c(C(=O)Cn2nnc(-c3ccccc3)n2)c1C	-33.7%	29.1 µM [falling, single point]	–
NC(=O)COC(=O)C1CSC2(c3ccc(F)cc3)CCC(=O)N12 (configuration not stated)	-2.17%	–	–
CC(C)(C)C(=O)NNC(=O)c1cc(C(C)(C)C)nn1Cc1ccccc1	-28.7%	3.66 µM [falling, full curve, poor fit]	29.1 µM [falling, single point]
Cc1ccccc1-c1ccc(C(=O)NCc2ccccc2)o1	2.49%	–	8.2 µM [rising, partial curve]
Cc1ccc(Nc2nc(Oc3ccc(OCc4ccccc4)nn3)nc(N3CCOCC3)n2)cc1	10.9%	–	4.61 µM [rising, full curve]
COCC(C)n1c(C)cc(C(=O)COC(=O)CCc2nc3ccccc3c(=O)[nH]2)c1C (configuration not stated)	64.5%	1.3 µM [rising, full curve, poor fit]	–
Cc1cc(C)nc(NC(=NCCc2c[nH]c3ccccc23)NC(=O)c2ccco2)n1	-29%	0.0731 µM [rising, single point]	0.164 µM [rising, full curve]
Cc1ccc(NC(=O)COC(=O)CCn2c(C)csc2=O)c([N+](=O)[O-])c1	3.61%	–	–
CCc1ccc(-c2nnn(Cc3nn[nH]n3)n2)cc1	-5.28%	–	7.31 µM [falling, single point]
CC(C(=O)N1CCc2ccccc21)n1cccc1 (configuration not stated)	6.92%	–	20.6 µM [falling, partial curve]
CCC(COC)Oc1cc(NCc2ccccc2)c2ncn(C(C)C)c2c1 (configuration not stated)	-74.2%	4.61 µM [falling, single point]	–
N#Cc1cccc(C(=O)OCc2cccc(S(=O)(=O)N3CCOCC3)c2)c1	-20.1%	–	–
O=C(c1ccc(Br)o1)N1CCN(Cc2ccccc2Cl)CC1	-19.1%	–	0.411 µM [falling, full curve, poor fit]
CCCN(CCC)C(=O)Cn1ccc(=N)c2ccccc21	-28.5%	0.00517 µM [falling, full curve]	0.116 µM [falling, full curve]

Among those listed so far, 2 have fluorine.
SMILES	cell number change	AC50 [1]	AC50 [2]
O=C(NCc1ccccc1F)C1CCCN(c2cnccn2)C1 (configuration not stated)	12.5%	–	16.4 µM [rising, partial curve]
NC(=O)COC(=O)C1CSC2(c3ccc(F)cc3)CCC(=O)N12 (configuration not stated)	-2.17%	–	–

Additional records follow:

SMILES	cell number change	AC50 [1]	AC50 [2]
CCn1nnc(-c2ccccc2NC(=O)c2cc(OC)c(OC)c(OC)c2)n1	10.8%	–	–
Cc1ccc(N2C(=O)N(Cc3ccccc3C)c3ccccc3S2(=O)=O)cc1	39.8%	1.16 µM [rising, full curve]	2.06 µM [rising, partial curve]
O=C(O)C1CCN(S(=O)(=O)c2cccnc2)CC1	16.4%	–	5.8 µM [falling, single point]
COC(=O)c1ccc(-n2c(C)cc(-c3csc(NC(=O)c4ccc(S(=O)(=O)N(C)C)cc4)n3)c2C)cc1	24.9%	2.91 µM [rising, full curve, poor fit]	4.11 µM [rising, single point]
Cc1nc(SCC(=O)c2ccccc2)c(C#N)c(-c2ccco2)c1C(=O)NCc1ccco1	18.5%	0.291 µM [rising, partial curve, poor fit]	0.366 µM [rising, partial curve]
CCn1c(SCC(=O)N2CCCc3ccccc32)nnc1-c1ccco1	-10.3%	–	–
O=C(Cc1cccc2ccccc12)Nc1ccccc1C(=O)O	-65.1%	29.1 µM [falling, single point]	29.1 µM [falling, single point]
C=CC[N+](C)(C)CCN1C(=O)C2C(c3ccccc3)C=CC(c3ccccc3)C2C1=O (configuration not stated)	-19%	–	5.17 µM [falling, partial curve]
FC(F)(F)c1ccc(Oc2ccc3ccccc3c2Br)nc1	-37.5%	8.2 µM [falling, partial curve]	11.6 µM [falling, partial curve]
O=C(COc1ccc(S(=O)(=O)NC2CCCCC2)cc1)N1CCN(c2ccc(F)cc2)CC1	25.3%	–	10.3 µM [falling, partial curve]
O=C(Nc1ccon1)C12CC3CC(C1)CC(n1cnc([N+](=O)[O-])n1)(C3)C2	–	–	0.58 µM [falling, single point]
COCCNC(=S)N(CCCN(C)C)Cc1cc2cc3c(cc2[nH]c1=O)OCCO3	18.6%	–	29.1 µM [rising, single point]
COc1ccc(CNc2cc(C)nc3ncnn23)c(OC)c1	-52.7%	14.6 µM [falling, partial curve]	1.84 µM [rising, partial curve]
COc1ccccc1C(=O)Nc1nnc(S(=O)(=O)N2CCCCCC2)s1	3.89%	–	–
O=C(O)c1cc([N+](=O)[O-])ccc1C(=O)Nc1ccccc1	4.17%	–	–
O=C(Nc1ccncc1)C1CCN(S(=O)(=O)c2c(Cl)cccc2Cl)CC1	-18.7%	–	1.03 µM [falling, partial curve]
CCn1c(SCC(=O)N/N=C/c2c[nH]c3ccccc23)nnc1-c1ccc(C(C)(C)C)cc1	-8.24%	–	29.1 µM [falling, single point]
Cc1cccc(/C=N/NC(=O)c2cc(C)nc3ccccc23)n1	33.3%	20.6 µM [rising, single point]	–
CC1(C)Cc2c(sc3nc4n(c(=N)c23)CCC4)CO1	-187%	23.1 µM [falling, partial curve]	20.6 µM [falling, partial curve]
